# Test results taken from the supplement of paper PMC12067093, “Discovery and optimisation of a covalent ligand for TRIM25 and its application to targeted protein ubiquitination” (Chemical Science, 2025).
# The chains behind the UniProt entries cited, without tags or fusion partners.
# UniProt Q6ZW49, whole entry, looked up: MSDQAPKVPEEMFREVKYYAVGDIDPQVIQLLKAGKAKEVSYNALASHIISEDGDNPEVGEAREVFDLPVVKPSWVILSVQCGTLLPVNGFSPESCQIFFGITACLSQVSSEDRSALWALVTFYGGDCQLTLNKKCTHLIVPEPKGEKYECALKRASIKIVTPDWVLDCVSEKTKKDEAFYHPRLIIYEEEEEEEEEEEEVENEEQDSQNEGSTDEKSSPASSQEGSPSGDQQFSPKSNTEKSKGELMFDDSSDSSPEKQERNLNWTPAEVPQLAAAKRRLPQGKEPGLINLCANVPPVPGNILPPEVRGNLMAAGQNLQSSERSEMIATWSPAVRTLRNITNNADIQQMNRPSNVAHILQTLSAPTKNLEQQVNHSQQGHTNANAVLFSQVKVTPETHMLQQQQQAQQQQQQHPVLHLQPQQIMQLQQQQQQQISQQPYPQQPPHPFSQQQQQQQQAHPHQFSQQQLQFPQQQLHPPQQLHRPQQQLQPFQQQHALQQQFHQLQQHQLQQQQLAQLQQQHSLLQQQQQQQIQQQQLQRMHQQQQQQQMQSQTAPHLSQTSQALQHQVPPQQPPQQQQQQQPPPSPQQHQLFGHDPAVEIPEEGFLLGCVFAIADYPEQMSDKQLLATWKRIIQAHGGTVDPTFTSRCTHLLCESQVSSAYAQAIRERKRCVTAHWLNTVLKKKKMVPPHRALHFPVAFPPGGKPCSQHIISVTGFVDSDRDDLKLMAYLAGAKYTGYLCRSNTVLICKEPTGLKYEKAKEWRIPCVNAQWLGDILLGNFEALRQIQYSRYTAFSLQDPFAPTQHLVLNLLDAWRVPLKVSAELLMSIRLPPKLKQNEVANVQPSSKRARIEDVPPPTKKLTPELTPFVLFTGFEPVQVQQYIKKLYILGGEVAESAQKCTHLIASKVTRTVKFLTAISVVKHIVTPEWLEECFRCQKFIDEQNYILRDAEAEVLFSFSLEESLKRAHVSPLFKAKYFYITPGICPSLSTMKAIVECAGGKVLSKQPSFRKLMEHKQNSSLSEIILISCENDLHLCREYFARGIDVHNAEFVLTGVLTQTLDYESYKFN
# UniProt Q86U86, whole entry, looked up: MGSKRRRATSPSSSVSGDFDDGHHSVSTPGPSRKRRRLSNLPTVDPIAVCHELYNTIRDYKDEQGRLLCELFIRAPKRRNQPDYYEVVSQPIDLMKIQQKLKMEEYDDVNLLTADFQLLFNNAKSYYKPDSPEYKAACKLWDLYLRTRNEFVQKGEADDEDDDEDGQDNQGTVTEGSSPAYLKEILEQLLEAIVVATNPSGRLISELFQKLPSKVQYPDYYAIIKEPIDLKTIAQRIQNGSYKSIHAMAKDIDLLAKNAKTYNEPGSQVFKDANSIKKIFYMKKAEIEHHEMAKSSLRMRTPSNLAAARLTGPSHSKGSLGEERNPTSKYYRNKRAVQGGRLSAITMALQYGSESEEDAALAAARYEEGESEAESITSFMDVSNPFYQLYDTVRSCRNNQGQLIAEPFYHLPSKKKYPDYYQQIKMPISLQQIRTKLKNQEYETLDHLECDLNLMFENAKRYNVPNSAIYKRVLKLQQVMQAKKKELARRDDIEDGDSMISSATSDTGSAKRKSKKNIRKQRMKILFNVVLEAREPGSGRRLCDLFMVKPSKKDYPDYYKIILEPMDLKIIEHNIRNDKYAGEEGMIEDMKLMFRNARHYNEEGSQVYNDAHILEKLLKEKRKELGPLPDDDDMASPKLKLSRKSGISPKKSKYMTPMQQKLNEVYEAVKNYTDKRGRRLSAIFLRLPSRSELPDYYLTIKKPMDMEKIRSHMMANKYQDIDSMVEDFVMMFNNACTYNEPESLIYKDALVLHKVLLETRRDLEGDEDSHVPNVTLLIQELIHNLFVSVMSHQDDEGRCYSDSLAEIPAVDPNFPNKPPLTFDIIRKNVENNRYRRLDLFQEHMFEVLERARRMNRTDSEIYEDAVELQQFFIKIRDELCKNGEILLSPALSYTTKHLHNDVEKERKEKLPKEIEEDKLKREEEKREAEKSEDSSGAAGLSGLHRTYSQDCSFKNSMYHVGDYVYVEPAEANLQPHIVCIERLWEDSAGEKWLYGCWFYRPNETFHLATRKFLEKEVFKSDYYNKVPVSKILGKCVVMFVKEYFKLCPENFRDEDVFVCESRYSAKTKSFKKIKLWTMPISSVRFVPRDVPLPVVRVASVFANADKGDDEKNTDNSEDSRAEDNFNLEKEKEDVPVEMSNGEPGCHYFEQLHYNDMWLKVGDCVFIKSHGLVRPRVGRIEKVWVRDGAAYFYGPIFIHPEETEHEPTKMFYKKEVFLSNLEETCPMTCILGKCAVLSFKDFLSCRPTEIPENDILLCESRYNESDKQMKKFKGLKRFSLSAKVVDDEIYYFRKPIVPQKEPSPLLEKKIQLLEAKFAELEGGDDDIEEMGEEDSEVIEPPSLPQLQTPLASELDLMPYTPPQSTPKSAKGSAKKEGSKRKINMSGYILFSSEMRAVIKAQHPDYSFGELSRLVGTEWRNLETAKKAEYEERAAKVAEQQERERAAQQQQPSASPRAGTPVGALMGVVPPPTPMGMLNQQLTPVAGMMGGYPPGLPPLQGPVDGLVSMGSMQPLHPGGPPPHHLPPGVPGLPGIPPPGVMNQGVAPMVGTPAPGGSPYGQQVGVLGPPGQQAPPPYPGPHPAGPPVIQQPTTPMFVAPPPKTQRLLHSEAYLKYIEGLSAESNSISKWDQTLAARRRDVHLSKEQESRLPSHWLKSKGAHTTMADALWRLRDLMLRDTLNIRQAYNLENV
# This is one part of the list.
# Experiments:
# [1] = molecular target: PAXIP1_Q6ZW49_933_HIVTPEWLEECFR (UniProt Q6ZW49); assay: probe-labelled cysteine peptide fold change vs DMSO (competition) (log2 fold change); higher = less target engagement (more negative = stronger competition); conditions: THP-1, incubation time: 4 h
# [2] = molecular target: PBRM1_Q86U86_979_NSMYHVGDYVYVEPAEANLQPHIVCIER (UniProt Q86U86); assay: as above; conditions: THP-1, incubation time: 4 h
# 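Further: competitive chemoproteomic profiling in live THP-1 cells with an iodoacetamide desthiobiotin (IA-DTB) probe, comparing probe-labelled peptide intensities in compound-treated cells against DMSO-treated controls.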
smiles,measurement,setting,value
CC1Cc2ccccc2N1C(=O)C1CCCN(C(=O)CCl)C1 (mixture of isomers) [TRIM25 ligand 11 (diastereomer mixture)],probe-labelled cysteine peptide fold change,[1]; 10 µM,-0.0207
same,probe-labelled cysteine peptide fold change,[1]; 50 µM,-0.0116
same,probe-labelled cysteine peptide fold change,[2]; 10 µM,0.451
same,probe-labelled cysteine peptide fold change,[2]; 50 µM,-0.0875
